# Patent US9902761B2, “Polypeptides, nucleic acids and uses thereof” (AGENCY FOR SCIENCE, TECHNOLOGY AND RESEARCH, priority 2013, dated 2018)
# At least one structure is not confirmed: it was looked up by name or label, or the drawing left a doubt.
# What was measured:
# PI3K/AKT pathway = experiment: signaling pathway assay in starved hESCs pulsed with peptide (SDS-PAGE, western); assay type: cell-based, human; conditions: LY294002 5 uM, Wortmannin 1 uM, 30 minutes before ELA
# Method: To assay the signaling pathway activated by ELA, hESCs were dissociated and plated in mTSER1 for 48 hours, followed by a 2-hour starvation in DMEM/F12. Synthetically produced ELA or ELA^RR>GG peptides, dialyzed against PBS to remove any residual synthesis buffers, were added at a final concentration of 5 uM (or as indicate(D) for the indicated period of time. Where applicable, PI3K inhibitors LY294002 (5 uM) and Wortmannin (1 uM) were added 30 minutes before pulsing with ELA peptides. Cells were lysed with PhosphoSafe™ (Millipore) for SDS-PAGE.
# hESCs = experiment: insulin replacement assay in hESCs; assay type: cell-based, human; conditions: cell index measurements over 5 days
# Method: For insulin replacement assays, SHEF4 or HESC3 hESCs were cultured in TSER-E5 (Stem Cell Technologies) supplemented with TGF-β (5 ng/ml, R&D Systems) and bFGF (100 ng/ml, Invitrogen) with and without INSULIN (10 ug/ml, SIGMA).
SMILES,effect of PI3K inhibitor pre-treatment on ELA-mediated AKT activation (PI3K/AKT pathway),effect of PI3K inhibitor on the rescue by ELA without INSULIN (hESCs)
"O=c1cc(N2CCOCC2)oc2c(-c3ccccc3)cccc12 [LY294002, reference compound]",abrogated,abrogated the rescuing effect of ELA
"COC[C@H]1OC(=O)c2coc3c2[C@@]1(C)C1=C(C3=O)[C@@H]2CCC(=O)[C@@]2(C)C[C@H]1OC(C)=O [Wortmannin, reference compound]",abrogated,
